Article PMC5568443

Sequences of proteins named here, by UniProt entry; tags and fusion partners are left off. A change or cut given only in a name is not applied to a line headed by its entry.
UniProt Q4GZ52: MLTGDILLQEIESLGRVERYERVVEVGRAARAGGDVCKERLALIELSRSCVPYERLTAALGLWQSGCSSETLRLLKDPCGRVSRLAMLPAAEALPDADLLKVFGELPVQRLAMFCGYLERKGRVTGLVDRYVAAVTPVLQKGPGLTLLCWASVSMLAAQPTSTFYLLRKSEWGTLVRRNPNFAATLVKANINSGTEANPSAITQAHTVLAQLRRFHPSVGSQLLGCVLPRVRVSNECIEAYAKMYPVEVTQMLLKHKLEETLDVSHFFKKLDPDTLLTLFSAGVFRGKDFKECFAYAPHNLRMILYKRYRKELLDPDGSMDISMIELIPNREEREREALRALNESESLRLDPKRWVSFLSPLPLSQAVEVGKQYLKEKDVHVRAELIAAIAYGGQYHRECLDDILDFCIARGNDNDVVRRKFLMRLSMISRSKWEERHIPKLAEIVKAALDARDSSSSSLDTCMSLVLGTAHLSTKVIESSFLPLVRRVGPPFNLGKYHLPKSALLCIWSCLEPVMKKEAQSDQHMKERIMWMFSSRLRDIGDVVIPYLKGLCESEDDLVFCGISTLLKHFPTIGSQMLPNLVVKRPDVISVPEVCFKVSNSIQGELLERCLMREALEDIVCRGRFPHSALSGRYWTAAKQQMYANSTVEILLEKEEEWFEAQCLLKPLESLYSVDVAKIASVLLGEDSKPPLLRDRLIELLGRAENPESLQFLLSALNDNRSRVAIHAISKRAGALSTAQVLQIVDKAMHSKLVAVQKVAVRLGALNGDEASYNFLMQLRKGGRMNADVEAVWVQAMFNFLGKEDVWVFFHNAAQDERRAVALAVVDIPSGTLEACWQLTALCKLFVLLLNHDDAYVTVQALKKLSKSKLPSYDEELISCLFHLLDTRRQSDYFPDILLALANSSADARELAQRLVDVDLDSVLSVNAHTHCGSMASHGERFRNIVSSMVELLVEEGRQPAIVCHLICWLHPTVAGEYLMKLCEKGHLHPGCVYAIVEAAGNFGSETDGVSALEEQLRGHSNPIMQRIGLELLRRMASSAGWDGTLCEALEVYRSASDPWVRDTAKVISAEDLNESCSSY

Biological target: TAP-RBP10 (RBP10 with an N-terminal tandem affinity purification tag) (T. brucei (Lister 427)) (UniProt Q57W93)
Assay: affinity purification with mass spectrometry; TAP-RBP10 from Lister 427 bloodstream forms: IgG column, TEV elution, calmodulin column, EGTA elution, SDS-PAGE, mass spectrometry; result over all six preparations (three with RNase, three without); TAP-GFP as negative control

- binding: binds
Substance: armadillo repeat protein, Tb927.1.1670 (from UniProt Q4GZ52)

No constants are given. Whether binding was seen depends on the method and setting. Binding seen in cells or lysates may run through a third protein. These calls come from enrichment with a bait or labelling near it, and not all partners need be listed.
